Results deposited as PubChem BioAssay AID1159578 (Peter MacCallum Cancer Centre, 2015)

Purpose: 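Knock-downs that alter how fast lymphatic endothelial cells migrate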 (primary screen)
System: human lymphatic endothelial cells
Knock-down reagent: siRNA pool against human genes, 40 nM
Duration: 48 h after transfection
Detection: 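High-content imaging of dye-stained cells in a scratch assay measures filled wound area and nuclei per well; duplicate means given as ratio to mock and robust z-score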
Scale: migration robust z-score: higher = faster migration into the scratch; nuclei per well: higher = more cells in the well
Active means: 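Pools averaging fewer than 3300 nuclei are never called; remaining pools count as changed when migration robust z lies outside -2 to 2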
Calls: active = migration changed; inactive = no migration change, or too few cells
Here is an unselected part of about 18,000 deposited reagents. Over the whole deposit, about 1,030 (5.7%) were called active. 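Inactive calls also include pools with fewer than 3300 nuclei, whose migration was not assessed.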 Raw values vary from plate to plate and are shown uncorrected. Unmarked entries are inactive. Not all columns of the deposit are shown. No sequences are given here.

target | migration robust z-score | nuclei per well, duplicate mean
GBF1 | -0.34 | 6380
TBXAS1 | 0.52 | 6250
PYGM | -1.55 | 3675
ZNF76 | -2.49 (active) | 5260
SEPTIN7 | 0.29 | 7576
SGK3 | -2.56 (active) | 4634
OR5W2 | -1.38 | 4716
TAT | -0.88 | 5389
USP51 | -0.02 | 6114
SNX17 | 0.74 | 6241
CCL3L1 | 1.49 | 5576
ZKSCAN2 | 1.14 | 4913
POU5F2 | 0.2 | 4815
DONSON | 0.6 | 3770
KCNJ9 | -1.74 | 4622
TGM6 | -1.54 | 7880
ADORA2B | 0.78 | 6371
ASPM | -0.23 | 5100
NIPAL1 | -0.13 | 6173
CSN3 | -0.18 | 4568
OMD | 0.09 | 5623
CHKB | -0.2 | 6723
KCTD2 | -0.78 | 5605
ATP1A2 | -0.26 | 6180
MSRB2 | 1.45 | 5812
OR7G1 | -2.34 (active) | 5899
GMPS | 0.75 | 5359
ISG15 | -1.31 | 5330
CNR2 | -0.84 | 5770
BTBD16 | 1.01 | 5989
AKT1 | 0.96 | 5148
HEYL | 0.34 | 6552
EPHA10 | -0.83 | 4687
ANO5 | 0.36 | 6106
CCN2 | -0.16 | 5828
D2HGDH | -0.35 | 5724
PARP10 | 0.86 | 6190
HECTD3 | 0.26 | 5814
SOCS2 | 0.5 | 5417
PPP6R3 | -1.11 | 5906
ACER1 | -0.16 | 4796
KLB | 1.04 | 3629
SERPING1 | 0.42 | 4894
BBS10 | 0.56 | 6440
HAUS1 | -1.21 | 5862
MYDGF | -1.56 | 3414
ZACN | 0.44 | 6256
USP3 | -0.83 | 5144
ATF7IP2 | 0.92 | 5724
SQSTM1 | -1.68 | 5220
MTNR1A | 0.6 | 6241
APCDD1 | 0.05 | 5694
DNAJC14 | 1.4 | 5760
ZNF526 | -0.26 | 5457
ZNG1A | -0.4 | 4275
ARHGAP21 | -1.16 | 4724
TNK2 | -0.62 | 3839
CXCL14 | 0.5 | 6180
PPFIA1 | 0.2 | 4567
SPOUT1 | -0.12 | 6852
STEAP1 | 0.76 | 5306
SHMT2 | -0.93 | 5118
STX7 | 0.66 | 5578
UNC119B | 0.14 | 5848
CNOT9 | -0.48 | 6520
DEFB121 | 1.66 | 6090
TTC39C | -0.12 | 5812
ITLN2 | -1.02 | 5832
UBE2O | -2.75 (active) | 4939
BFAR | 0.99 | 6511
ARL13B | -0.2 | 6056
HDGFL3 | -0.15 | 4522
APLP2 | -0.96 | 7294

In a second layout: entries from further up
OMD | migration robust z-score: 0.09; nuclei per well, duplicate mean: 5623
CHKB | migration robust z-score: -0.2; nuclei per well, duplicate mean: 6723
KCTD2 | migration robust z-score: -0.78; nuclei per well, duplicate mean: 5605
ATP1A2 | migration robust z-score: -0.26; nuclei per well, duplicate mean: 6180
MSRB2 | migration robust z-score: 1.45; nuclei per well, duplicate mean: 5812
OR7G1 | migration robust z-score: -2.34 (active); nuclei per well, duplicate mean: 5899
GMPS | migration robust z-score: 0.75; nuclei per well, duplicate mean: 5359
ISG15 | migration robust z-score: -1.31; nuclei per well, duplicate mean: 5330
